According to US8846411B2, “Derivatives, reagents, and immunoassay for detecting levetiracetam” (Microgenics Corporation, priority 2009, dated 2014):

System: anti-levetiracetam antibody prepared with immunogen 18a
Experiment: Antibody avidity by ELISA binding inhibition study with levetiracetam
Conditions: Sheep No. 5479 antibody, 405 nm
Protocol: The avidity of the anti-levetiracetam antibody prepared with immunogen 18a for various levetiracetam derivatives were determined by a binding inhibition study. Samples were prepared in 1 mL of PBS at pH 7.4 with 0.1% BSA. A composition having 30% Bmax titer or 50% Bmax titer was used to divide the titer value as obtained in Example 38 into approximately half the titer value. Using 30% Bmax, an antibody titer of 1:10000 was diluted to […] during the sample preparation stage. About 50 μL of levetiracetam at different concentrations or calibrator values, (0, 5, 10, 20, 40, 80 μg/ml) were applied to a plate as prepared in accordance with Example 38. About 50 μL of the diluted antibody was dispensed into the plate, and the compositions in the plate were mixed for 1 min on a horizontal plate shaker. No levetiracetam or anti-levetiracetam antibody was added to the first row of the plate, which served as a negative control. A second row with anti-levetiracetam antibody but without levetiracetam was used as the positive control. The plate was incubated for 60 min and washed three times with 250 μL of PBS at pH 7.4 with 0.05% Tween 20. About 125 μL of a diluted derivative such as 18b or 19 in PBS at pH 7.4 was added to each well of the plate. The plate was incubated for 60 min at 37° C. and washed as described above. Approximately 125 μL of ABTS substrate was added to each well of the plate and incubated for 20 min.

Work on CC[C@@H](C(N)=O)N1CCCC1=O [Levetiracetam, (−)-(S)-α-ethyl-2-oxo-1-pyrrolidine acetamide] yielded an Abs. (Levetiracetam 5 μg/mL, Antigen 18b) of 0.80, an Abs. (Levetiracetam 5 μg/mL, Antigen 19) of 0.84 and an Abs. (Levetiracetam 10 μg/mL, Antigen 18b) of 0.81. It also gave an Abs. (Levetiracetam 10 μg/mL, Antigen 19) of 0.78, an Abs. (Levetiracetam 20 μg/mL, Antigen 18b) of 0.75 and an Abs. (Levetiracetam 20 μg/mL, Antigen 19) of 0.74. It also gave an Abs. (Levetiracetam 40 μg/mL, Antigen 18b) of 0.73, an Abs. (Levetiracetam 40 μg/mL, Antigen 19) of 0.67 and an Abs. (Levetiracetam 80 μg/mL, Antigen 18b) of 0.72. It also gave an Abs. (Levetiracetam 80 μg/mL, Antigen 19) of 0.66.
